PMC6925144, “A prospective compound screening contest identified broader inhibitors for Sirtuin 1” (Scientific Reports, 2019)
Over roughly 3,200 compounds, “TSA(with NAD+) / Primary screening (TSA) / delta Tm (K)” has its median near -0.04; the highest 2% begin near 0.37. This is one part of the list.

Protein sequences, listed by entry. Tags and fused reporters are not part of them. Residues count along the entry.
UniProt Q96EB6, 2-747 limits assumed: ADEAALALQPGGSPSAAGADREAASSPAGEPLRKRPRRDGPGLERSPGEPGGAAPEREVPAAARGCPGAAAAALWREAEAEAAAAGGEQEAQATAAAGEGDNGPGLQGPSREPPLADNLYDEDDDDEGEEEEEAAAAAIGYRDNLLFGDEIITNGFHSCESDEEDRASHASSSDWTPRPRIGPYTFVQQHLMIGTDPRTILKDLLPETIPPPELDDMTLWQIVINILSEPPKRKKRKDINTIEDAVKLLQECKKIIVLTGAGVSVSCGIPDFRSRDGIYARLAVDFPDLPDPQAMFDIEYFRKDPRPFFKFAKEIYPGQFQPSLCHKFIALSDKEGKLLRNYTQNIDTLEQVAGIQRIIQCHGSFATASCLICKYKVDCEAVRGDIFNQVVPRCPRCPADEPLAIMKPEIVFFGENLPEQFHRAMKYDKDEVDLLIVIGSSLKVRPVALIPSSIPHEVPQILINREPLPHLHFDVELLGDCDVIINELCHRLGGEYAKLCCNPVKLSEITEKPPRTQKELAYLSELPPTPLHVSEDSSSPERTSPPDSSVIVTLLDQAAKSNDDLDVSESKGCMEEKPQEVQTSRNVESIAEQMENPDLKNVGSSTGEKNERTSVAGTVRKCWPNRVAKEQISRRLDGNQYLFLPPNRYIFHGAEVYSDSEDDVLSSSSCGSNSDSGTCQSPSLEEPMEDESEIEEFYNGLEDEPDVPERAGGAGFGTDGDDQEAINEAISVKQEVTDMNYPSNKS

These compounds were tested against NAD-dependent deacetylase Sirtuin 1 (human, UniProt Q96EB6) (assay: primary screen, delta tm). Details: 10 µM.
Parameters: single well (n = 1, as 'the same TSA')

SMILES	TSA(with NAD+) / Primary screening (TSA) / delta Tm (K)
COC(=O)c1ccc(C2C(C(=O)c3sc(C)nc3C)=C(O)C(=O)N2CCCN2CCOCC2)cc1 (stereo not drawn)	-0.09 K
O=C(Nc1ccc(Oc2ncccn2)cc1)c1ccc(S(=O)(=O)Nc2ccc(F)cc2)cc1	0.06 K
NC(=O)c1ccc(F)c(NC(=O)C2CCCc3cccnc32)c1 (stereo not drawn)	0.05 K
O=C(COC(=O)CN1C(=O)c2ccccc2S1(=O)=O)Nc1ccccc1SCc1ccccc1	0.06 K
Cc1nc2c(C(N)=O)ncn2c(C)c1CCC(=O)NC(c1cccs1)C(C)C (stereo not drawn)	-0.04 K
Cc1cc(C#N)ccc1S(=O)(=O)NCCC(C)N (stereo not drawn)	-0.03 K
O=C(Cc1ccccc1OC(F)F)Nc1cccc(-c2nnn[nH]2)c1	-0.01 K
Cc1nc(N2CCC(C(N)=O)CC2)c2c3c(sc2n1)CCCCC3	0.66 K
O=C(CN1c2cccc3cccc(c23)S1(=O)=O)c1c[nH]c2ccccc12	0.22 K
CC(CN)CN	-0.18 K
CC1CN(C(=O)c2ccc(NC(=O)C3=COCCC3)cc2)CC(C)O1 (stereo not drawn)	-0.28 K
COc1ccc(/C=N/c2ccc(C)cc2)cc1	0.01 K
NC(=O)NCCCCC(=O)Nc1cccc(C(F)(F)F)c1	0.08 K
CC(C(=O)Nc1ncccn1)N1CCC(c2c[nH]c3ccc(C(N)=O)cc23)CC1 (stereo not drawn)	-0.12 K
O=C(O)c1cnc2c(c1)c(=O)[nH]c(=O)n2Cc1ccccc1	-0.13 K
c1ccc(-c2cc(-c3nc4c5ccccc5ncn4n3)[nH]n2)cc1	-0.04 K
Cc1c(NN=C2C(=O)NC(=S)NC2=O)c(=O)n(-c2ccccc2)n1C	0.11 K
OC1CCN(CCOCCOc2ccccc2)CC1	-0.01 K
O=C(CN1C(=O)NC2(CCCC2)C1=O)NCC12CC3CC(CC(C3)C1)C2	-0.13 K
O=C(c1ccc(-n2cnnn2)cc1Cl)N1CCCN2CCCC2C1 (stereo not drawn)	-0.32 K
Cc1nc(-c2cccnc2)nc(NCCOc2cccnc2)c1C	-0.02 K
COc1ccccc1-c1c(C)oc2cc(O)ccc2c1=O	-0.09 K
NC(=O)c1ccc(N2CCCC2)c(NC(=O)CCc2ccc3c(c2)OCO3)c1	-0.04 K
Cc1ccc(S(=O)(=O)N2CCCCC2)cc1NC(=O)COC(=O)c1ccccc1SCC(=O)N1CCCC1	-0.01 K

SMILES	TSA(with NAD+) / Primary screening (TSA) / delta Tm (K)
O=C(Nc1ccc(NC(=O)c2ccccc2-n2cccn2)cc1)NC1CC1	-0.01 K
CC#CCN	-0.03 K
Cc1nc2cc(NC(=O)C3Cc4ccccc4O3)ccc2o1 (stereo not drawn)	-0.12 K
CCn1c(C(=O)Nc2ccc(CCO)cc2)cc2ccccc21	-0.03 K
NC(=O)CN1CCOc2cc(Br)c(Cl)cc21	-0.13 K
CN1C(=O)N(CC(=O)c2ccc3c(c2)CCCC3)C(=O)C12CCCCC2	-0.11 K
CCn1c(=O)c(C)nc2cc(C(=O)NCC(C(C)C)N(C)C)ccc21 (stereo not drawn)	-0.08 K
O=C(CN1C(=O)COc2ccccc21)Nc1cccc(S(=O)(=O)NCc2ccco2)c1	-0.09 K
CC(C)c1ccc(-c2nnc(NC(=O)/C=C/c3ccco3)s2)cc1	-0.06 K
O=C1NC(=S)NC(=O)C1=Cc1ccc(N2CCOCC2)cc1	-0.11 K
O=C(Nc1cnc2ccccc2c1)C(=O)N1CCCC1c1ccsc1 (stereo not drawn)	-0.16 K
O=C(c1ccc2c(=O)[nH]c(S)nc2c1)N1CCN(C(=O)c2cnccn2)CC1	0.06 K
COc1ccc(N(C)S(=O)(=O)c2cccc(C(=O)Nc3ccc(Cl)cc3)c2)cc1	0.86 K
NS(=O)(=O)c1ccc(CCNC(=O)COC(=O)C23CC4CC(C2)CC(c2ccccc2)(C4)C3)cc1	0.08 K
O=C(NCc1cccc(OCc2ccccn2)c1)Nc1ccc(C(=O)N2CCCCCC2)cc1	-0.03 K
O=C(CN1CCN(Cc2ccsc2)CC1)Nc1ccc(N2CCCC2=O)cc1	0.03 K
NC(=O)C1CCCN(c2ncnc3ccsc23)C1 (stereo not drawn)	-0.01 K
Cc1ccccc1C(=O)N1CCC(C(=O)Nc2ccc(N3CCN(Cc4ccccc4)CC3)cc2)CC1	-0.01 K
NC(=O)c1ccc(OCC(=O)NC(=O)NCc2cccs2)cc1	-0.02 K
COc1ccc2cc(C(=O)N(C)CC(=O)O)c(C)nc2c1	-0.15 K
CC1(c2ccc(C#N)cc2)NC(=O)N(CC(=O)Nc2ccc(C(N)=O)cc2)C1=O (stereo not drawn)	-0.13 K
COc1cccc(C(=O)C2=C(O)C(=O)N(CCCN3CCOCC3)C2c2cccs2)c1 (stereo not drawn)	-0.01 K
O=C(CSC1=N/C(=C\c2ccccc2)C(=O)N1c1ccc(F)cc1)c1c[nH]c2ccccc12	-0.08 K
COC(=O)CCC(=O)NNC(=O)CCC(=O)Nc1ccc(C)c(C)c1	-0.16 K

SMILES	TSA(with NAD+) / Primary screening (TSA) / delta Tm (K)
Cc1ccc(C(=O)C(OC(=O)c2c(C)noc2C)c2ccc(C)cc2)cc1 (stereo not drawn)	-0.26 K
NC(=O)c1ccc(NC(=O)c2ccccc2S(=O)(=O)N2CCCCC2)cc1	-0.01 K
Cc1nn(C)c2ncc(S(=O)(=O)N(C)c3ccc4ccccc4c3)cc12	-0.01 K
CC(NC(=O)COC(=O)c1ccc2c(c1)S(=O)(=O)c1ccccc1C2=O)C12CC3CC(CC(C3)C1)C2 (stereo not drawn)	0.01 K
NCc1nc2c(cnn2-c2ccccc2)c(=O)[nH]1	-1.78 K
O=C1/C(=C\c2cc(Br)cc(Br)c2O)CC/C1=C\c1cc(Br)cc(Br)c1O	0.19 K
O=C(NCc1ccc[nH]1)C(=O)Nc1ccc2c(c1)CCC2	-0.05 K
CCn1cnc2c(N3CC4CCCCCC43)ncnc21 (stereo not drawn)	-0.09 K
Cc1ccc(NC(=O)c2ccc(Cl)nc2Cl)cc1F	-0.01 K
COc1ccc(CCNC(=O)/C=C/c2ccc3ccccc3n2)cc1OC	-0.04 K
N=C1c2ccccc2CN1c1ccc(-c2ccc(N3Cc4ccccc4C3=N)cc2)cc1	-0.03 K
Cc1nnc(CN2CCN(CC(O)COCc3ccco3)CC2)n1C (stereo not drawn)	-0.13 K
CCOc1ccc(C2C(C(=O)/C=C/c3ccco3)=C(O)C(=O)N2CCCN2CCOCC2)cc1OC (stereo not drawn)	-0.12 K
NC(=O)c1ccc(N2CCCC2)c(NC(=O)c2cn(Cc3ccccc3)nn2)c1	-0.05 K
CN1c2ccccc2C(=O)NC1c1cccc(C(F)(F)F)c1 (stereo not drawn)	-0.08 K
COc1ccc2cc(C(=O)O)c(C)nc2c1	-0.22 K
O=C(Nc1cccc(S(=O)(=O)N2CCOCC2)c1)c1cc(-c2ccccc2)nn1-c1ccccc1	-0.04 K
NC(=O)Cc1ccc(NC(=O)c2cc(Br)ccc2F)cc1	-0.04 K
COc1cccc(CN(C(=O)CN2C(=O)c3ccccc3S2(=O)=O)C23CC4CC(CC(C4)C2)C3)c1	-0.09 K
O=C(O)c1cc2c(ccc3cc(Br)ccc32)oc1=O	0.16 K
Cc1nn(C)cc1CCN	-0.11 K
NC(=O)c1csc(C(=O)N2CCC(COCc3ccccc3)C2)c1 (stereo not drawn)	-0.01 K
O=C(CSc1ccccc1C(=O)OCc1cc([N+](=O)[O-])cc2c1OCOC2)NC12CC3CC(CC(C3)C1)C2	0.15 K
COC(=O)c1[nH]c(C)c(C(=O)/C=C(/O)C(=O)NCCN2CCOCC2)c1C	-0.01 K

SMILES	TSA(with NAD+) / Primary screening (TSA) / delta Tm (K)
CC(NC(=O)COC(=O)c1cccnc1SCC(=O)Nc1ccc2c(c1)OCO2)C12CC3CC(CC(C3)C1)C2 (stereo not drawn)	0.06 K
CCN(CC)c1ccc(C(=O)C(C#N)C(=O)N2CCCC2)cn1 (stereo not drawn)	-0.11 K
CCOC(=O)c1sc2ncnc(N3CCCC(C(N)=O)C3)c2c1C (stereo not drawn)	-0.21 K
COC(=O)C1(CNc2ncnc3c(C)csc23)CC1	0.06 K
COC(=O)CN	0.07 K
NC(=O)C1CCN(c2ncnc3ccccc23)CC1	-0.28 K
Cc1ccc(-c2csc3ncn(CCC(=O)Nc4cccc(-c5nc(C)no5)c4)c(=O)c23)cc1	0.16 K
CCc1cccc2c(C(=O)COC(=O)CN3CCCCCC3=O)c[nH]c12	-0.05 K
Cc1ccc(-c2nnc(SCC(=O)NC(=O)NC(C)C)n2N)cc1	-0.04 K
Cc1ccc2[nH]c3c(c2c1)CN(c1ncccn1)CC3	-0.18 K
CC(O)CC(C)(C)CNC(=O)Nc1ccc(F)cc1 (stereo not drawn)	-0.09 K
Cc1[nH]c2ccc(C(=O)N3CCC(C(N)=O)CC3)cc2c1C	-0.01 K
COCCCCCN	-0.11 K
CC1(C)CN(CC(F)(F)F)CCN1CC(=O)NCc1ccccc1	-0.01 K
N#CCCC(C#N)CN1CCC(CCc2ccc(O)cc2)CC1 (stereo not drawn)	-0.14 K
CC(C)CC1CCCC(CC(C)C)N1 (stereo not drawn)	-0.11 K
NC(=O)c1cc(N2CCN(CC(=O)N3CCCCCC3)CC2)nc2ccccc12	-0.01 K
CC(=O)NC12CC3CC(C1)CC(C(=O)OC(C)C(=O)Nc1ccccc1-c1ccccc1)(C3)C2 (stereo not drawn)	0.02 K
O=C(Nc1cccc2cccnc12)c1ccc2c(c1)C(=O)c1ccccc1-2	0.09 K
COc1cccc(/C=C2/Oc3cc(O)ccc3C2=O)c1OC(F)F	0.11 K
Cc1ccc(-n2c3nc4ccccc4nc3c3c(=N)oc(C)nc32)cc1	-0.23 K

A few values from the entries so far:
Cc1ccc(-c2nnc(SCC(=O)NC(=O)NC(C)C)n2N)cc1 | TSA(with NAD+) / Primary screening (TSA) / delta Tm (K): -0.04 K
COC(=O)C1(CNc2ncnc3c(C)csc23)CC1 | TSA(with NAD+) / Primary screening (TSA) / delta Tm (K): 0.06 K
CCc1cccc2c(C(=O)COC(=O)CN3CCCCCC3=O)c[nH]c12 | TSA(with NAD+) / Primary screening (TSA) / delta Tm (K): -0.05 K
Cc1ccc(-n2c3nc4ccccc4nc3c3c(=N)oc(C)nc32)cc1 | TSA(with NAD+) / Primary screening (TSA) / delta Tm (K): -0.23 K
CCN(CC)c1ccc(C(=O)C(C#N)C(=O)N2CCCC2)cn1 (stereo not drawn) | TSA(with NAD+) / Primary screening (TSA) / delta Tm (K): -0.11 K
COc1cccc(/C=C2/Oc3cc(O)ccc3C2=O)c1OC(F)F | TSA(with NAD+) / Primary screening (TSA) / delta Tm (K): 0.11 K
CC(NC(=O)COC(=O)c1cccnc1SCC(=O)Nc1ccc2c(c1)OCO2)C12CC3CC(CC(C3)C1)C2 (stereo not drawn) | TSA(with NAD+) / Primary screening (TSA) / delta Tm (K): 0.06 K
